{"source": "PubChem BioAssay AID272", "about": "(DTP/NCI, 2004)", "test_system": "Lewis lung carcinoma i.m., BDF1 mice, T/C %", "assay": "NCI In Vivo Anticancer Drug Screen. Data for tumor model Lewis Lung Carcinoma (intramuscular) in B6D2F1 (BDF1) mice", "conditions": "T/C endpoint: median survival time, higher T/C = longer survival", "summary_of_the_method": "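Transplantable tumour model; readout survival or tumour size; value = treated (T) / vehicle control (C).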", "note": "The list is a part of this screen's results and no random one: it is rich in T/C values a quarter to a half above the control, in often repeated tests (any T/C) and in doses without a T/C. Further doses and runs are listed elsewhere. T/C is the treated group as % of the vehicle group. Some entries give survivors of the animals treated and no T/C: the source holds a T/C of zero for them, seemingly a mark for toxic or unscored doses. Some doses without a T/C left all or most animals alive at the check, yet need not have been tolerated: the source hardly ever lists a survival T/C far under the control, and the zero likely stands for such cases as well. Survivors were counted at the toxicity check, usually on the fifth day, unless a day is given; later deaths do not show. Schedule codes are those of the source, taken here to give the interval after Q, in days (D) or hours (H), and the number of doses after X. Some doses were run more than once; the results are listed from low to high. Signs of the kind (2×) stand for listed records that agree. Where survival is the endpoint, this PubChem deposit counts one and a half times the control or more as active, and values a quarter to a half above the control carry no call in these data; other NCI protocols may use other cut-offs. Some T/C values are followed by the survivors on the day toxicity was checked, most often the fifth; where none is given, no animal had died by that day.", "data": [{"smiles": "Cc1c(N)nc([C@H](CC(N)=O)NC[C@H](N)C(N)=O)nc1C(=O)N[C@H](C(=O)N[C@H](C)[C@@H](O)[C@H](C)C(=O)N[C@H](C(=O)NCCc1nc(-c2nc(C(=O)NCCC[S+](C)C)cs2)cs1)[C@@H](C)O)C(OC1OC(CO)C(O)C(O)C1OC1OC(CO)C(O)C(OC(N)=O)C1O)c1cnc[nH]1", "note": "(some centres undefined)", "values": [{"measurement": "T/C", "setting": "dose: 8.4 mg/kg/injection, schedule: Q01DX009 (ip), vehicle: saline, evaluated on day 48", "result": "102 [7 of 8 alive] and 111 % of control [7 of 8 alive]"}, {"measurement": "T/C", "setting": "dose: 8.4 mg/kg/injection, schedule: Q01DX009 (ip), vehicle: saline, evaluated on day 52", "result": "146 % of control"}, {"measurement": "T/C", "setting": "dose: 8.5 mg/kg/injection, schedule: Q01DX011 (ip), vehicle: saline", "result": "133 % of control"}, {"measurement": "T/C", "setting": "dose: 10.0 mg/kg/injection, schedule: Q01DX011 (ip), vehicle: saline", "result": "144 % of control"}, {"measurement": "T/C", "setting": "dose: 12.5 mg/kg/injection, schedule: Q01DX011 (ip), vehicle: saline", "result": "133 % of control"}, {"measurement": "T/C", "setting": "dose: 14.0 mg/kg/injection, schedule: Q01DX004 (ip), vehicle: saline", "result": "138 % of control"}, {"measurement": "T/C", "setting": "dose: 14.0 mg/kg/injection, schedule: Q01DX009 (ip), vehicle: none", "result": "130 % of control"}, {"measurement": "T/C", "setting": "dose: 14.0 mg/kg/injection, schedule: Q01DX009 (ip), vehicle: saline, evaluated on day 10", "result": "131 % of control"}, {"measurement": "T/C", "setting": "dose: 14.0 mg/kg/injection, schedule: Q01DX009 (ip), vehicle: saline, evaluated on day 11", "result": "186 % of control"}, {"measurement": "T/C", "setting": "dose: 14.0 mg/kg/injection, schedule: Q01DX009 (ip), vehicle: saline, evaluated on day 12", "result": "129 and 134 % of control"}, {"measurement": "T/C", "setting": "dose: 14.0 mg/kg/injection, schedule: Q01DX009 (ip), vehicle: saline, evaluated on day 14", "result": "146 % of control"}, {"measurement": "T/C", "setting": "dose: 14.0 mg/kg/injection, schedule: Q01DX009 (ip), vehicle: saline, evaluated on day 41", "result": "131 % of control [7 of 8 alive]"}, {"measurement": "T/C", "setting": "dose: 14.0 mg/kg/injection, schedule: Q01DX009 (ip), vehicle: saline, evaluated on day 43", "result": "130 % of control [7 of 8 alive]"}, {"measurement": "T/C", "setting": "dose: 14.0 mg/kg/injection, schedule: Q01DX009 (ip), vehicle: saline, evaluated on day 45", "result": "132 % of control"}, {"measurement": "T/C", "setting": "dose: 14.0 mg/kg/injection, schedule: Q01DX009 (ip), vehicle: saline, evaluated on day 48", "result": "130 [7 of 8 alive] and 158 % of control"}, {"measurement": "T/C", "setting": "dose: 14.0 mg/kg/injection, schedule: Q01DX009 (ip), vehicle: saline, evaluated on day 52", "result": "146 % of control [7 of 8 alive]"}, {"measurement": "T/C", "setting": "dose: 14.0 mg/kg/injection, schedule: Q09DX009 (ip), vehicle: saline, evaluated on day 10", "result": "141 % of control"}, {"measurement": "T/C", "setting": "dose: 14.0 mg/kg/injection, schedule: Q09DX009 (ip), vehicle: saline, evaluated on day 50", "result": "141 % of control [7 of 8 alive]"}, {"measurement": "T/C", "setting": "dose: 16.0 mg/kg/injection, schedule: Q01DX009 (ip), vehicle: water, evaluated on day 45", "result": "138 and 187 % of control"}, {"measurement": "T/C", "setting": "dose: 16.0 mg/kg/injection, schedule: Q01DX009 (ip), vehicle: water, evaluated on day 60", "result": "138 % of control"}, {"measurement": "survivor count", "setting": "dose: 16.0 mg/kg/injection, schedule: Q01DX009 (ip), vehicle: water", "result": "9 of 10"}, {"measurement": "T/C", "setting": "dose: 16.0 mg/kg/injection, schedule: Q01DX011 (ip), vehicle: saline", "result": "126 % of control"}, {"measurement": "survivor count", "setting": "dose: 20.0 mg/kg/injection, schedule: Q01DX011 (ip), vehicle: saline", "result": "8 of 8"}, {"measurement": "survivor count", "setting": "dose: 20.0 mg/kg/injection, schedule: Q01DX014 (ip), vehicle: saline", "result": "8 of 8"}, {"measurement": "T/C", "setting": "dose: 23.0 mg/kg/injection, schedule: Q01DX004 (ip), vehicle: saline", "result": "139 % of control"}, {"measurement": "T/C", "setting": "dose: 23.0 mg/kg/injection, schedule: Q01DX009 (ip), vehicle: saline, evaluated on day 10", "result": "165 % of control"}, {"measurement": "T/C", "setting": "dose: 23.0 mg/kg/injection, schedule: Q01DX009 (ip), vehicle: saline, evaluated on day 11", "result": "168 % of control"}, {"measurement": "T/C", "setting": "dose: 23.0 mg/kg/injection, schedule: Q01DX009 (ip), vehicle: saline, evaluated on day 12", "result": "151 and 185 % of control"}, {"measurement": "T/C", "setting": "dose: 23.0 mg/kg/injection, schedule: Q01DX009 (ip), vehicle: saline, evaluated on day 14", "result": "120 % of control"}, {"measurement": "T/C", "setting": "dose: 23.0 mg/kg/injection, schedule: Q01DX009 (ip), vehicle: saline, evaluated on day 41", "result": "152 % of control [7 of 8 alive]"}, {"measurement": "T/C", "setting": "dose: 23.0 mg/kg/injection, schedule: Q01DX009 (ip), vehicle: saline, evaluated on day 43", "result": "182 % of control [7 of 8 alive]"}, {"measurement": "survivor count", "setting": "dose: 23.0 mg/kg/injection, schedule: Q01DX009 (ip), vehicle: saline", "result": "5 of 8 (2×), 6 of 8, 7 of 8"}, {"measurement": "T/C", "setting": "dose: 23.0 mg/kg/injection, schedule: Q04DX003 (ip), vehicle: saline", "result": "127 % of control"}, {"measurement": "survivor count", "setting": "dose: 25.0 mg/kg/injection, schedule: Q01DX011 (ip), vehicle: saline", "result": "0 of 8"}, {"measurement": "T/C", "setting": "dose: 25.0 mg/kg/injection, schedule: Q04DX003 (ip), vehicle: saline", "result": "136 % of control"}, {"measurement": "survivor count", "setting": "dose: 30.0 mg/kg/injection, schedule: Q01DX011 (ip), vehicle: saline", "result": "4 of 8"}, {"measurement": "survivor count", "setting": "dose: 30.0 mg/kg/injection, schedule: Q01DX011 (sc), vehicle: saline", "result": "2 of 8"}, {"measurement": "survivor count", "setting": "dose: 32.0 mg/kg/injection, schedule: Q01DX009 (ip), vehicle: water", "result": "6 of 10 and 10 of 10 (3×)"}, {"measurement": "survivor count", "setting": "dose: 32.0 mg/kg/injection, schedule: Q01DX011 (ip), vehicle: saline", "result": "2 of 10 and 6 of 10"}, {"measurement": "T/C", "setting": "dose: 36.0 mg/kg/injection, schedule: Q04DX003 (ip), vehicle: saline", "result": "147 % of control"}, {"measurement": "survivor count", "setting": "dose: 40.0 mg/kg/injection, schedule: Q01DX011 (ip), vehicle: saline", "result": "0 of 8"}, {"measurement": "survivor count", "setting": "dose: 40.0 mg/kg/injection, schedule: Q01DX014 (ip), vehicle: saline", "result": "8 of 8"}, {"measurement": "T/C", "setting": "dose: 40.0 mg/kg/injection, schedule: Q04DX003 (ip), vehicle: saline", "result": "125 % of control"}, {"measurement": "T/C", "setting": "dose: 51.0 mg/kg/injection, schedule: Q04DX003 (ip), vehicle: saline", "result": "133 % of control [6 of 8 alive]"}, {"measurement": "survivor count", "setting": "dose: 60.0 mg/kg/injection, schedule: Q01DX011 (ip), vehicle: saline", "result": "0 of 8"}, {"measurement": "survivor count", "setting": "dose: 64.0 mg/kg/injection, schedule: Q01DX009 (ip), vehicle: water", "result": "10 of 10"}, {"measurement": "survivor count", "setting": "dose: 73.0 mg/kg/injection, schedule: Q01DX001 (ip), vehicle: saline", "result": "4 of 8"}, {"measurement": "survivor count", "setting": "dose: 80.0 mg/kg/injection, schedule: Q04DX003 (ip), vehicle: saline", "result": "4 of 8"}, {"measurement": "survivor count", "setting": "dose: 665.0 mg/kg/injection, schedule: Q04DX003 (ip), vehicle: saline", "result": "5 of 8"}]}]}
